Among all 320,000 compounds or so, about 22,000 (6.9%) were called active. The inconclusive results got no clear call from the source; some entries with a clear call stand among them for comparison. The call rests on the fitted dose curve; in most records, active means well fitted inhibition curve with a large enough effect; inconclusive means small, poorly fitted or top-dose-only effect, or another doubt; inactive means no such curve, though single readings can be large or run the other way. Potencies of inconclusive entries are doubtful fits and often do not repeat.
assay: Primary qHTS for delayed death inhibitors of the malarial parasite plastid, 96 hour incubation; details: P. falciparum luciferase reporter growth; series mostly up to 28.7 µM; activity change, negative = inhibition: at the top concentration
In short: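 Luminescence readout: decreased luciferase signal marks inhibited growth of reporter-expressing P. falciparum in infected red cells (2% hematocrit, 0.05% parasitemia final), exposed to compound two generations (96 h, 37 C, 5% CO2).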
On the % scale 0 is the no-effect control and ±100 the full control effect; potency means the concentration at half of the fitted maximal effect.

With `Cc1nc(NCCN2CCOCC2)c2nnn(Cc3ccccc3Cl)c2n1` as the compound, how does the Potency read?
Its Potency is inconclusive: 11.7 µM [inhibitor, single point].

With `CCOC(=O)c1ccc2c(c1)nc(COc1ccc(OC)cc1)n2CC` as the compound, how does the Potency read?
Its Potency is active: 9.28 µM.

For `Cc1ccc(-c2nc(CS(=O)(=O)CC(=O)NCc3ccc4c(c3)OCO4)c(C)o2)cc1`, which Potency is on record?
The Potency was active: 14.7 µM.

Which Potency does the source give for `Cc1cc(N2C(=O)C(O)=C(C(=O)c3ccc(C)o3)C2c2ccc(OCc3ccccc3)cc2)no1` (stereo not given) here?
Its Potency is inconclusive: 18.5 µM [inhibitor, single point].

Which Potency does the source give for `CC(C)NC(=O)c1ccc(COc2ccc(C(C)(C)C)cc2)o1` here?
The Potency was inconclusive: 5.22 µM [inhibitor, single point].

Which “activity change, negative = inhibition” value does the source give for `O=C(Cc1ccc(F)cc1)NCCc1ccc(F)cc1` here?
The value was inactive: -25.1%.

With `Cc1[nH]c2ccccc2c1CCN(Cc1cccnc1)C(=S)NC(C)(C)C` as the compound, how does the Potency read?
The Potency was active: 13.1 µM.

Which “activity change, negative = inhibition” value does the source give for `Cc1nc2cc(-c3ccccc3)sc2c(=O)n1N` here?
The value was inactive: 4.56%.

Which “activity change, negative = inhibition” value does the source give for `O=[N+]([O-])c1ccc(Cl)c(/C=N/n2c(-c3ccncc3)n[nH]c2=S)c1` here?
Its value is inactive: -3.61%.

For `Clc1cc(Cl)c(Cl)cc1Cl`, which “activity change, negative = inhibition” value is on record?
Its value is inactive: -27.2%.

Which “activity change, negative = inhibition” value does the source give for `O=C(c1ccco1)N1CCN(C(c2ccccn2)c2nnnn2C2CCCC2)CC1` (stereo not given) here?
The value was inactive: 56.7%.

Which Potency does the source give for `O=C(NC1CCCCCC1)C1CCN(S(=O)(=O)N2CCC3(CC2)OCCO3)CC1` here?
The Potency was inconclusive: 11.7 µM [inhibitor, single point].

With `CCOC(=O)N1CCN(c2cc(=O)n(-c3ccc(C)cc3)c(=O)[nH]2)CC1` as the compound, how does the “activity change, negative = inhibition” value read?
The value was inactive: 5.27%.

With `O=Cc1ccccc1OCc1ccc2c(c1)OCO2` as the compound, how does the Potency read?
Its Potency is inconclusive: 0.0029 µM [inhibitor, partial curve, poor fit].

Which “activity change, negative = inhibition” value does the source give for `Cc1oc2c(C)c3oc(=O)c(CCC(=O)O)c(C)c3cc2c1-c1ccccc1` here?
Its value is inactive: 13.6%.

With `CCOC(=O)c1[nH]c2cc3c(cc2c1NC(=O)CN1CCc2ccccc2C1)OCO3` as the compound, how does the Potency read?
The Potency was inconclusive: 20.8 µM [inhibitor, partial curve, poor fit].

Which “activity change, negative = inhibition” value does the source give for `Cc1onc(-c2ccccc2)c1C(=O)Nc1ccc(S(=O)(=O)N2CCOCC2)cc1` here?
Its value is inactive: 196%.

With `CCc1ccc(-c2cc(C)no2)cc1S(=O)(=O)N1CCN(c2ccccc2F)CC1` as the compound, how does the “activity change, negative = inhibition” value read?
The value was inactive: -29%.

With `O=c1c2ccccc2nc(-c2ccco2)n1Cc1ccccc1` as the compound, how does the Potency read?
Its Potency is inconclusive: 2.33 µM [inhibitor, partial curve, poor fit].

With `CC12CCC(C(=O)Nc3nc4ccc(Br)cc4s3)(OC1=O)C2(C)C` (stereo not given) as the compound, how does the Potency read?
Its Potency is inconclusive: 20.8 µM [inhibitor, partial curve, poor fit].

For `CCn1cc(C(=O)O)c(=O)c2cc(F)c(N3CCN[C@@H](C)C3)c(F)c21`, which Potency is on record?
Its Potency is inconclusive: 12 µM [inhibitor, single point].

For `O=S(=O)(c1cccc(C(F)(F)F)c1)N1CCC(c2cc(-c3cccc4ccccc34)n[nH]2)CC1`, which Potency is on record?
Its Potency is active: 10.4 µM.

With `O=C(O)C1CCCN1C(=O)C12CC3CC(CC(C3)C1)C2` (stereo not given) as the compound, how does the Potency read?
Its Potency is inconclusive: 9.28 µM [inhibitor, partial curve, poor fit].

With `Cc1cc(Br)cc2c1NC(=O)C2(O)CC(=O)c1ccco1` (stereo not given) as the compound, how does the activity change, negative = inhibition read?
Its activity change, negative = inhibition is inactive: 61.6% [at 1.15 µM].

With `CC(=O)Nc1ccc(-n2c(C)ccc2-c2ccccc2)cc1` as the compound, how does the Potency read?
The Potency was inconclusive: 10.4 µM [inhibitor, partial curve, poor fit].

Which “activity change, negative = inhibition” value does the source give for `N=Nc1c(O)n(CC(=O)Nc2ccccc2)c2ccccc12` here?
Its value is inactive: 33.6%.

For `c1ccc2c3n(nc2c1)CCCCO3`, which Potency is on record?
The Potency was inconclusive: 0.738 µM [inhibitor, single point].

For `O=c1cc(O)c2sc(Nc3ccc(F)c(Cl)c3)nc2[nH]1`, which Potency is on record?
The Potency was active: 3.7 µM.

With `c1ccc2c(c1)CNc1ccccc1O2` as the compound, how does the “activity change, negative = inhibition” value read?
Its value is inactive: -13.2%.

Which Potency does the source give for `COCCNC(=O)c1cc(-c2ccncc2)nc2ccc(S(=O)(=O)N3CCOCC3)cc12` here?
Its Potency is inconclusive: 18.5 µM [inhibitor, single point].

For `O=C(Nc1cccc(Cl)c1)c1ccc(F)c(S(=O)(=O)N2CCN(c3ccccn3)CC2)c1`, which Potency is on record?
The Potency was inconclusive: 10.4 µM [inhibitor, single point].

With `CCn1c(C)cc(/C=C2/NC(=O)N(Cc3ccccc3F)C2=O)c1C` as the compound, how does the Potency read?
The Potency was active: 9.28 µM.

With `Cc1ccc(OCC(=O)Nc2ccc3oc(=O)ccc3c2)c(C)c1` as the compound, how does the Potency read?
The Potency was inconclusive: 0.522 µM [inhibitor, partial curve, poor fit].

Which Potency does the source give for `Cc1cccn2c(=O)c(/C=C(\C#N)C(=O)NCc3ccco3)c(N3CCCCCC3)nc12` here?
The Potency was inconclusive: 10.4 µM [inhibitor, partial curve].

With `Cc1ccc(C)c(NC(=O)CN(C)C(=O)Cc2coc3cc(C)c(C)cc23)c1` as the compound, how does the Potency read?
The Potency was inconclusive: 1.31 µM [inhibitor, partial curve, poor fit].

With `C=CCN(C(=O)c1csnn1)C(C(=O)NC1CCCC1)c1ccc(F)cc1` (stereo not given) as the compound, how does the Potency read?
The Potency was inconclusive: 13.1 µM [inhibitor, partial curve, poor fit].

For `O=C(CSc1nnc(-c2ccccc2)c(-c2ccccc2)n1)NC1CCS(=O)(=O)C1` (stereo not given), which “activity change, negative = inhibition” value is on record?
Its value is inactive: -9.61%.

For `CCCCC(=O)Nc1ccccc1CC`, which “activity change, negative = inhibition” value is on record?
Its value is inactive: 32.2%.

With `O=C(COn1nnc2ccc(Cl)cc21)NCc1ccccc1` as the compound, how does the “activity change, negative = inhibition” value read?
The value was inactive: -1.02%.

With `CSc1nc(-c2ccc(Cl)cc2Cl)[nH]c(=O)c1C#N` as the compound, how does the “activity change, negative = inhibition” value read?
The value was inactive: -5.81%.

With `O=C(c1cccn2c(=O)c3cc(Cl)ccc3nc12)N1CCC2(CC1)OCCO2` as the compound, how does the Potency read?
Its Potency is inconclusive: 11.7 µM [inhibitor, partial curve, poor fit].

For `NC(=O)c1nn(CC(=O)Nc2cccc(S(=O)(=O)N3CCCCCC3)c2)c(=O)c2ccccc12`, which Potency is on record?
The Potency was inconclusive: 0.928 µM [inhibitor, full curve].

Which “activity change, negative = inhibition” value does the source give for `O=C(NC(=S)Nc1ncc(Br)cc1Br)c1cncc(Br)c1` here?
Its value is inactive: 2.29%.

Which Potency does the source give for `OCCC1CN(Cc2cccc3nccnc23)CCN1Cc1ccc(F)cc1` (stereo not given) here?
Its Potency is inconclusive: 9.28 µM [inhibitor, single point].

Which “activity change, negative = inhibition” value does the source give for `CCOc1ccc(NC(=S)N2CCCCCC2)cc1` here?
The value was inactive: -20%.

With `CSc1ccccc1C(=O)Nc1c(C)cccc1C` as the compound, how does the “activity change, negative = inhibition” value read?
Its value is inactive: 9.32%.

For `Cc1ccc(CS(=O)Cc2ccc(C(=O)NCCc3ccccc3)o2)cc1` (stereo not given), which “activity change, negative = inhibition” value is on record?
The value was inactive: -10.4%.

With `Nc1ccc2nc3c(=O)[nH]c(=S)[nH]c3nc2c1` as the compound, how does the Potency read?
Its Potency is inconclusive: 14.7 µM [inhibitor, partial curve, poor fit].

Which “activity change, negative = inhibition” value does the source give for `CCOc1ccc(N(CC(=O)NC2CCCCC2)S(=O)(=O)c2ccc(C)cc2)cc1` here?
Its value is inactive: 10.5%.

Which Potency does the source give for `N#C/C(=C/c1ccccc1)C(=O)OCC(=O)Nc1ccccc1[N+](=O)[O-]` here?
Its Potency is inconclusive: 11.7 µM [inhibitor, single point].

With `Cc1ccc(Cn2c(=N)c(C(=O)NC3CCCC3)cc3c(=O)n4ccccc4nc32)cc1` as the compound, how does the Potency read?
Its Potency is inconclusive: 1.85 µM [inhibitor, full curve, poor fit].

Which “activity change, negative = inhibition” value does the source give for `Cn1c(CNC(=O)CCNC(=O)c2cccc(F)c2)cc(=O)n(C)c1=O` here?
The value was inactive: -8.25%.

Which Potency does the source give for `O=C(NC(=S)N1CCN(c2ccc([N+](=O)[O-])cc2)CC1)c1ccccc1` here?
Its Potency is inconclusive: 8.28 µM [inhibitor, single point].

With `O=C(CCl)Nc1ccc2c(c1)OCO2` as the compound, how does the Potency read?
Its Potency is active: 14.7 µM.

Which “activity change, negative = inhibition” value does the source give for `Nn1c(SCC(=O)NC2CCCCC2)nnc1-c1ccccc1F` here?
The value was inactive: -19.7%.

For `COC(=O)Cn1c(C(O)c2ccccc2)nc2ccccc21` (stereo not given), which “activity change, negative = inhibition” value is on record?
Its value is inactive: 3.66%.

Which “activity change, negative = inhibition” value does the source give for `CCc1ccc(C(C)NC(=O)C2CCCC2)cc1` (stereo not given) here?
Its value is inactive: 0.114%.

Which Potency does the source give for `Cc1ccc(C)c(NS(=O)(=O)c2cc(C(=O)NCCSC3CCCCC3)ccc2C)c1` here?
Its Potency is inconclusive: 11.7 µM [inhibitor, single point].

Which Potency does the source give for `O=C(COc1ccc(/C=N/NC(=O)c2ccccc2O)cc1)Nc1ccc([N+](=O)[O-])cc1` here?
Its Potency is active: 11.7 µM.

For `Cn1nnc2c(N3CCCCC3)nccc21`, which Potency is on record?
The Potency was inconclusive: 10.4 µM [inhibitor, single point].

Which Potency does the source give for `CN(C)CCN(C(=O)c1ccc2c(c1)OCCO2)c1nc2ccc(Cl)cc2s1` here?
Its Potency is inconclusive: 11.7 µM [inhibitor, single point].

For `c1ccc2c(c1)CCC[C@@H]2C1=NCCN1`, which “activity change, negative = inhibition” value is on record?
Its value is inactive: -0.888%.

With `Cc1nnc2n(Cc3ccccc3)c(=O)c3c4c(sc3n12)COC(C(C)C)C4` (stereo not given) as the compound, how does the Potency read?
Its Potency is inconclusive: 13.1 µM [inhibitor, partial curve].

Which Potency does the source give for `CCOc1cccc(NC(=O)C(Cc2cccs2)c2nn[nH]n2)c1` (stereo not given) here?
Its Potency is inconclusive: 14.7 µM [inhibitor, single point].

With `N#C/C(C(=O)NCc1ccco1)=C1/SC=C(c2ccccc2)N1c1ccccc1` as the compound, how does the Potency read?
Its Potency is active: 5.22 µM.

For `CCC(=O)N(Cc1cc(=O)[nH]c2ccccc12)c1ccc(C)cc1C`, which Potency is on record?
Its Potency is inconclusive: 10.4 µM [inhibitor, single point].

For `COc1cc(NC(=O)CN2CCCCC2C)c(C)cc1[N+](=O)[O-]` (stereo not given), which Potency is on record?
Its Potency is inconclusive: 4.15 µM [inhibitor, partial curve, poor fit].

For `COc1ccc(NC(=O)CC(C(=O)O)C(C)c2ccccc2)cc1` (stereo not given), which Potency is on record?
Its Potency is inconclusive: 11.7 µM [inhibitor, single point].

Which Potency does the source give for `CCOc1c2ccc(C(=O)N[C@H](C)C3CCCCC3)cc2nn1CC` here?
Its Potency is inconclusive: 18.5 µM [inhibitor, single point].

For `COC(=O)Nc1ccc(S(=O)(=O)N2CCC(C(=O)N(C)C3CCCCC3)CC2)cc1`, which Potency is on record?
Its Potency is inconclusive: 8.28 µM [inhibitor, partial curve, poor fit].

Which Potency does the source give for `COC(=O)C1=C(c2ccc3ccccc3c2)C[C@@H]2CC[C@H]1N2C(=O)NCc1ccc(F)cc1` here?
The Potency was inconclusive: 4.15 µM [inhibitor, full curve, poor fit].

For `Cc1ccc(NC(=O)CSc2ncc3ccccn23)cc1C`, which “activity change, negative = inhibition” value is on record?
The value was inactive: 90.9%.

For `CC(Sc1nnc(C2CC2)n1C1CC1)C(=O)NC1(C#N)CCCCC1` (stereo not given), which “activity change, negative = inhibition” value is on record?
Its value is inactive: -2.9%.

For `O=C(CSc1nc(-c2ccc(F)cc2)cc(C(F)(F)F)n1)NCc1ccco1`, which Potency is on record?
Its Potency is active: 2.08 µM.

For `CCN1CCN(C(=O)Cn2ncc3c2-c2ccccc2OC3)CC1`, which Potency is on record?
Its Potency is inconclusive: 14.7 µM [inhibitor, single point].

— PubChem BioAssay AID504834 (National Center for Advancing Translational Sciences (NCATS), 2011)
